Results are given in words; binding and its absence hold for the method and conditions named. Binding seen in cells or lysates may run through a third protein. These calls come from enrichment with a bait or labelling near it, and not all partners need be listed. For some of these results: No binding means not detected with the bait.
Assays:
[1] = biological target: GFP-CRY2 fusion protein (Arabidopsis cryptochrome 2) (Arabidopsis) (UniProt Q96524); assay: affinity purification with mass spectrometry; GFP-CRY2 isolated by GFP-trap from 35S::GFP-CRY2 seedlings kept in the dark (dark control); IP buffer 50 mM Tris-HCl pH 7.5, 150 mM NaCl, 1% Triton X-100, 4 °C; label-free LC-MS/MS
[2] = biological target: GFP-CRY2 fusion protein (Arabidopsis cryptochrome 2) (Arabidopsis) (UniProt Q96524); assay: affinity purification with mass spectrometry; GFP-CRY2 isolated by GFP-trap from 35S::GFP-CRY2 seedlings exposed to blue light for 60 min after one day of darkness; IP buffer 50 mM Tris-HCl pH 7.5, 150 mM NaCl, 1% Triton X-100, 4 °C; label-free LC-MS/MS
[3] = biological target: GFP-CRY2 fusion protein (Arabidopsis cryptochrome 2) (Arabidopsis) (UniProt Q96524); assay: as above; remark: listed apart in the source

Protein sequences, listed by entry. Tags and fused reporters are not part of them. Lines headed by an entry give the natural chain unless they say otherwise; changes in a name come on top.
UniProt Q96524: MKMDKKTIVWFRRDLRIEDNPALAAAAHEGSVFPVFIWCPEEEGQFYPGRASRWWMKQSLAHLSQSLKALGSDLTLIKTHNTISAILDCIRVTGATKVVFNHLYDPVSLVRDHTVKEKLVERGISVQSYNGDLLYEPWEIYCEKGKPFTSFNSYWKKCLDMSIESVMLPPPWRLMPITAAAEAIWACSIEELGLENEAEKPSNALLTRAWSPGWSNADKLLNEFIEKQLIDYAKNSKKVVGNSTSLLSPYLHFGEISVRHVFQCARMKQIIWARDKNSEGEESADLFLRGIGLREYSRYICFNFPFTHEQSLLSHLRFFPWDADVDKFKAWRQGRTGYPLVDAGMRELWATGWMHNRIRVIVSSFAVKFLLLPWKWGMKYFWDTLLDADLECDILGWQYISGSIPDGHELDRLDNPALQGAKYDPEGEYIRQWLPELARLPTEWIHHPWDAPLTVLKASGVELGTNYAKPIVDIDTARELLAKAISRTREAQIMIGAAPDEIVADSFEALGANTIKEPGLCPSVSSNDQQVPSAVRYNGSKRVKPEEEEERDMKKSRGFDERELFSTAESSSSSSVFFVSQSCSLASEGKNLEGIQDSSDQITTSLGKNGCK
UniProt Q9SQR8: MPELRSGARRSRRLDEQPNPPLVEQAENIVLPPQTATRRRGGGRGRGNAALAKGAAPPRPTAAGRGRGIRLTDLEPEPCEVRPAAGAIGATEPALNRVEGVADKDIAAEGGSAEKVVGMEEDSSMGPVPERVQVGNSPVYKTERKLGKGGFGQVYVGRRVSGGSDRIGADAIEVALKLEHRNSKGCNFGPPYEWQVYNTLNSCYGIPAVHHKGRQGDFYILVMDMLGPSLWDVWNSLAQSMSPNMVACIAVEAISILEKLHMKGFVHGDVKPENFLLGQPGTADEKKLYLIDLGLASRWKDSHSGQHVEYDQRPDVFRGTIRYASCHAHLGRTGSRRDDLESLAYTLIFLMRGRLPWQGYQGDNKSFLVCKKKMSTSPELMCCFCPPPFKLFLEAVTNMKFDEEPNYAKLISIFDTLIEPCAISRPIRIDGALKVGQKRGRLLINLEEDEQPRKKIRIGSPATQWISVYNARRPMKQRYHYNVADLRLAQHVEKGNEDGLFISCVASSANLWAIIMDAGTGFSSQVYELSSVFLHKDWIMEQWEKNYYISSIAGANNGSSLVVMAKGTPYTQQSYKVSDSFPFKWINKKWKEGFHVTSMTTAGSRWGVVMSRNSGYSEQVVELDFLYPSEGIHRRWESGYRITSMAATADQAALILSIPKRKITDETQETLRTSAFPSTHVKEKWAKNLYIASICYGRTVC
UniProt Q9LID3: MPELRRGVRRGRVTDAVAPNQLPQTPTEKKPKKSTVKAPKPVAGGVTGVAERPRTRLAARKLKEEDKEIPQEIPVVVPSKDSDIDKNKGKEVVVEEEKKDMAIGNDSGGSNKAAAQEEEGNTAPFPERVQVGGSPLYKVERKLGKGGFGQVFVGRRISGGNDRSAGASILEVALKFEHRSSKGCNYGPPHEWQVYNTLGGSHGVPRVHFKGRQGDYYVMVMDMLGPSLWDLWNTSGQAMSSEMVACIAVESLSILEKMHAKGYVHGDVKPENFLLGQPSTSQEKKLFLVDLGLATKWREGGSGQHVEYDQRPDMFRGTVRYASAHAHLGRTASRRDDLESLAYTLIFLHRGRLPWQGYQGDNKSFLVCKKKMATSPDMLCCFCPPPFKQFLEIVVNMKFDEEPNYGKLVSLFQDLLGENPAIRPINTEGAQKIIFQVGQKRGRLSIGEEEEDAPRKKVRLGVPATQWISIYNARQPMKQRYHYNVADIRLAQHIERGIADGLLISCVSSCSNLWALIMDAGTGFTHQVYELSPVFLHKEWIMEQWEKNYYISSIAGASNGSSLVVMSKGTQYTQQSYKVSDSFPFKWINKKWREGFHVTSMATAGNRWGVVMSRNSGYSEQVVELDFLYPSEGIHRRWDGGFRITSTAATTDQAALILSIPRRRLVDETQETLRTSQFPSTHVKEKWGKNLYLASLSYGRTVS
UniProt Q9FK52: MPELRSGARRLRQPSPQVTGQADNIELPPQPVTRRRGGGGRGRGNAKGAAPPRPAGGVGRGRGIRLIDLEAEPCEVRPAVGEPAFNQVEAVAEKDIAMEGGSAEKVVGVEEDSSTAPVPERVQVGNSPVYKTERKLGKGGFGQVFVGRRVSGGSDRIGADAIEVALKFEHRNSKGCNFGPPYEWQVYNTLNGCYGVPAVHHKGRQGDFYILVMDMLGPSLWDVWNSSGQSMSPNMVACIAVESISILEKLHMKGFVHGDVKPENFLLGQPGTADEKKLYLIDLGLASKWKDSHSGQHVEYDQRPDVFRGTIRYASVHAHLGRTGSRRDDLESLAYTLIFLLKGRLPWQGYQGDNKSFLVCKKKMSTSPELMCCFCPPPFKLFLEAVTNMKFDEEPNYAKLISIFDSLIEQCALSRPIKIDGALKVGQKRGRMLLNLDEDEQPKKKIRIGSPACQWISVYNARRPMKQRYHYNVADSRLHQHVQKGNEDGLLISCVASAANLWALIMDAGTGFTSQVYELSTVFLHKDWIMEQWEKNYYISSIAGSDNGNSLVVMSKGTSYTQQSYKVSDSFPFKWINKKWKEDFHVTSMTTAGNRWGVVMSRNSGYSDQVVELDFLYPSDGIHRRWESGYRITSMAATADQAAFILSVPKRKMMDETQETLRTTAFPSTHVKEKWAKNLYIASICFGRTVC

Row | Molecule | binding [2] | binding [3] | binding [1]
1 | Photoregulatory Protein Kinase 3 (PPK3), endogenous (from UniProt Q9SQR8) (enzyme) | binds | – | no binding (only plants kept in the dark)
2 | suppressor of PhyA 1 (SPA1) (protein, UniProt Q9SYX2 1-1029) MPVMERVAEETVATNNIQLKARVDDVPCNKLDARHNDMVIQSETANSDCPGSSAHRNVDLTKPPPPEEAAGAKLSVEELTLGNYRIVQGSNNTNVDSPRAGKFEHLYRLARGSAFRAGDGDLDSQPRDMDQMLSRIRQQLAGAPSERQNLKPFMSRRSDQNLEAFSERLRAAGENSIMNAPALISEGVQMKTPVSSSNFSQLLLKRAMKGKGVVGKNQETPPEFVSDQDLGSKEKKLDISKSPTPHDVLPLKSSPKGNGMVSHGDGNHSKSSIGISLREFLRSSYAKREKRHGLCLFRQLVELVDSAHSKRLFLLDLRPSLFTLVPSKKLRYIGNFGKNDLESDVDEDLNRRRPVVEESSSGGRDSKKRKMDLHLNSPGNQLQATSTGRPFKRKSPVIDLNMVDARNPDSCELQQQDYIKNLSVSSVSRKQSMSTWLEEQWYTCPEEINGEDIGEKSNIYALGVLLFELLCHCESGEMHAAMMADLRHRILPPTFLSKYPKEAGFCLWLLHPEPSSRPSARDILKSELICEDDSVKSTAAAEEISELLLHFLSSLEVQKKKKASKLLQDIQTLEDDIKEAERRYSSNVSLVRSHGAIEKRVQSSPLDEHCTTSSALFVPTANTDRLMSNIRQLEDAYFFMRSQINLSSSAATARSDKTLKDRDRCSENQNENQDMSTKGKSSDQLEVFFEGLCKFARYSKFETCGTIRSGDLLNSASVVCSLSFDPDEEHIAAAGISKKIKIFDFNAFMNESVGVHYPLVEMVNKSKLSCVCWNSYIKNYLASTDYDGVVQIWDAGTGQGFSQYTEHQKRAWSVDFSPSDPTKFVSGSDDCSVKLWSINEKRSLGTIWSPANVCCVQFSSYSNHLLAFGSADYKVYCYDLRYVKTPWCTLAGHEKAVSYVKFMDSETIVSASTDNSLKLWNLNKTNSSGLSPGACSLTYKGHTNQKNFVGLSVLDGYIACGSETNEVYSYYKSLPMPMTSYKFGSVDPISGNEYFDDNGQFVSSVCWRKKSNMLVAANSTGNMKLLKLV | – | binds | –

Now from value to molecule, other results behind:

Row | binding [2] | binding [3] | Molecule | binding [1]
3 | binds | – | Photoregulatory Protein Kinase 1 (PPK1), endogenous (from UniProt Q9LID3) (enzyme) | no binding (only plants kept in the dark)
4 | binds | – | Photoregulatory Protein Kinase 2 (PPK2), endogenous (from UniProt Q9FK52) (enzyme) | no binding (only plants kept in the dark)
